PubChem BioAssay AID1347076 (National Center for Advancing Translational Sciences (NCATS), 2019)
Out of some 400,000 compounds screened, about 13,000 (3.2%) were called active. The inconclusive results got no clear call from the source; some entries with a clear call stand among them for comparison. The call rests on the fitted dose curve; in most records, active means well fitted cell-killing curve with a large enough effect; inconclusive means small, poorly fitted or top-dose-only effect, or effect the other way; inactive means flat fitted curve, though single readings scatter. Where the call is inconclusive, the potency comes from a doubtful curve fit.
On the % scale 0 is the no-effect control and ±100 the full control effect; potency means the concentration at half of the fitted maximal effect.

Experiment: qHTS assay for MDR1-selective chemotherapeutics: Primary screen using the drug-selected MDR subline cells KB-V1; further: nearly all actives have a fitted effect of over 60% in size
Settings: KB-V1 MDR cells viability, CellTiter-Glo, 72 h; activity change, negative = cytotoxicity: at 46.1 µM (top of the series)
How it was run: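 Following 72 h at 37 degrees C with compound, KB-V1 cell viability was read by CellTiter-Glo luminescence, medium being phenol-red-free DMEM plus 10% FBS; concentration-response parameters came from normalized, curve-fitted qHTS data.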
In the case of `CC/C(=C\c1oc2cc3ccccc3cc2[n+]1CC)Nc1ccccc1`, the Potency is reported as active: 20.6 µM.
For `NC(=O)CC(c1ccccc1)c1ccc2c(c1)OCO2` (stereo unspecified), the Potency was “inactive”.
In the case of `Cc1ccccc1CN1C(=O)c2ccccc2Sc2ccc(C(=O)NCCN3CCOCC3)cc21`, the Potency is reported as “inactive”.
In the case of `COc1cccc(-c2cccc(-c3nc(C(=O)NCc4ccc(Oc5ccccc5)cc4)cc4c3[C@H](CCO)N(S(=O)C(C)(C)C)C4)c2)c1` (stereo partly specified), the Potency is reported as inconclusive: 29.1 µM [cytotoxic, single point].
For `Brc1ccc(N/N=C(/N=Nc2nn[nH]n2)c2ccccc2)cc1`, the Potency was inconclusive: 11.6 µM [cytotoxic, partial curve].
For `Cc1ncn(C23CC4CC(CC(C4)C2)C3)n1`, the Potency was inconclusive: 2.06 µM [rising, partial curve].
For `CSc1cccc(NC(=O)c2cccc3cccnc23)c1`, the activity change, negative = cytotoxicity was inconclusive: -34.7%.
For `Cc1ccccc1NC(=O)NNC(=O)CCc1ccccc1`, the Potency was inconclusive: 20.6 µM [rising, partial curve, poor fit].
With `COC(=O)c1cccc(Cn2c(Cl)c(/C=N/NC(=O)c3ccccc3Cl)sc2=O)c1` the Potency was inconclusive: 16.4 µM [cytotoxic, partial curve, poor fit].
For `O=C(c1ccc(F)cc1)c1cn(Cc2ccccc2)c2cc3c(cc2c1=O)OCO3`, the Potency was “inactive”.
In the case of `Cc1ccc2c(c1)c1c(n2CC2COC(C)(C)O2)C(=O)CCC1` (stereo unspecified), the Potency is reported as “inactive”.
In the case of `C=CCNC(=O)c1ccccc1NC(=O)c1ccc(Cl)c(S(=O)(=O)Nc2ccccc2)c1`, the Potency is reported as inconclusive: 29.1 µM [cytotoxic, single point].
In the case of `CCCCOc1ccc(C(=O)N/C(=C/C=C/c2ccccc2)C(=O)O)cc1`, the Potency is reported as inconclusive: 29.1 µM [rising, single point].
With `CCCCNC(=O)C(NC(=O)c1ccc(C)cc1)C(=O)c1ccccc1` (stereo unspecified) the Potency was inconclusive: 8.2 µM [cytotoxic, partial curve].
With `O=C(O)C1=NN(c2ccccc2)C(=O)C1` the activity change, negative = cytotoxicity was inconclusive: 33.3%.
For `Cc1cccc(CNC(=O)c2ccc(N3Cc4ccccc4Oc4ncccc43)s2)c1`, the Potency was “inactive”.
With `COc1ccc(NS(=O)(=O)c2ccc(S(=O)(=O)N3CCOCC3)cc2)cc1` the Potency was inconclusive: 18.4 µM [cytotoxic, partial curve].
With `CSc1ccc(Cl)c(C(=O)Nc2ccc(C)cn2)c1` the Potency was inconclusive: 23.1 µM [cytotoxic, single point].
For `COc1ccccc1-n1cnnc1SCC(=O)NC1CCCCC1`, the Potency was “inactive”.
For `Cc1nnc2c3ccccc3c(-c3cccc4ccccc34)nn12`, the Potency was active: 11.6 µM.
In the case of `O=C(COc1ccc(F)cc1)Nc1ccc(-n2cnnn2)cc1`, the Potency is reported as inconclusive: 18.4 µM [cytotoxic, partial curve, poor fit].
In the case of `O=C(NC1=NCCS1)c1ccccc1OCc1ccc(F)cc1`, the Potency is reported as inconclusive: 18.4 µM [cytotoxic, partial curve, poor fit].
With `C=CCn1cccc(/C=C/C(=O)c2ccc(C(C)(C)C)cc2)c1=S` the Potency was inconclusive: 16.4 µM [cytotoxic, single point].
With `CCC1Oc2ccc(C)cc2N(CC(=O)N(Cc2ccc3c(c2)OCO3)CC2CCCO2)C1=O` (stereo unspecified) the Potency was active: 6.51 µM.
For `O=C(COCc1cc(-c2cccs2)on1)N1CCN(c2ccccc2)CC1`, the Potency was “inactive”.
With `Cc1ccc2c(c1)N(CC(=O)N1CCC(O)CC1)C(=O)CO2` the Potency was inconclusive: 1.16 µM [rising, partial curve, poor fit].
In the case of `O=C(NNC(=O)c1ccc(NC(=O)c2ccccc2)cc1)c1ccc(F)cc1`, the Potency is reported as “inactive”.
In the case of `c1ccc(CCCN2CCOCC2)cc1`, the activity change, negative = cytotoxicity is reported as inconclusive: 34.3%.
With `Cc1ccc(-c2nc(S(=O)(=O)c3ccc(F)cc3)c(SCC(=O)NCC3CCCO3)o2)cc1` (stereo unspecified) the Potency was inconclusive: 3.26 µM [cytotoxic, partial curve].
For `CC(C)c1ccc(N2C(=O)CSC23C(=O)N(Cc2cccc(F)c2)c2ccccc23)cc1` (stereo unspecified), the Potency was active: 13 µM.
In the case of `O=C1C[C@H]2C=CCc3cccc(c32)CN1Cc1ccc(Cl)cc1`, the Potency is reported as active: 18.4 µM.
In the case of `COc1ccccc1C(=O)Nc1ccc2nc(SCCOc3ccccc3C)sc2c1`, the Potency is reported as “inactive”.
In the case of `COc1ccc(-c2cc(=O)c3c(C)cc(O)cc3o2)cc1`, the Potency is reported as active: 2.59 µM.
With `CCc1nc2ccc(C(=O)NCCc3ccccn3)cn2c1N(CC)Cc1cccc(Br)c1` the Potency was inconclusive: 29.1 µM [cytotoxic, single point].
For `CC(CC(=O)c1cccs1)CC(=O)c1cccs1`, the Potency was “inactive”.
For `N=c1n(CC(=O)c2ccc([N+](=O)[O-])cc2)c2ccccc2n1Cc1ccccc1Cl`, the Potency was inconclusive: 20.6 µM [cytotoxic, single point].
With `COc1ccc(-c2cc(C(=O)NN)[nH]n2)cc1` the Potency was inconclusive: 0.0651 µM [rising, single point].
In the case of `CC(/C=C/c1ccccc1)=N\NC(=O)CSc1ccccn1`, the Potency is reported as inconclusive: 20.6 µM [cytotoxic, single point].
In the case of `COc1ccc2c(c1)c(=O)oc1cc(OCC(=O)N3CCCC(C)C3)ccc12` (stereo unspecified), the Potency is reported as inconclusive: 10.3 µM [cytotoxic, partial curve, poor fit].
For `CCOC(=O)c1c(C)[nH]c(C(=O)OCC(=O)NCc2ccco2)c1C`, the Potency was inconclusive: 7.31 µM [cytotoxic, partial curve].
In the case of `C=CCOc1ccc(/C=N\NC(N)=S)cc1`, the Potency is reported as inconclusive: 29.1 µM [cytotoxic, single point].
For `C[C@@H]1CN([C@@H](C)CO)C(=O)c2cc(NC(=O)Nc3ccc4c(c3)OCO4)ccc2O[C@H]1CN(C)S(=O)(=O)c1cn(C)cn1`, the Potency was inconclusive: 29.1 µM [rising, partial curve, poor fit].
With `COc1ccc(CC(=O)Nc2cccc(C(=O)NN3C(=O)c4ccccc4C3=O)c2C)cc1` the activity change, negative = cytotoxicity was inconclusive: -11.3%.
For `CSc1ccc(/C=C/C(=O)NC(=O)c2ccccc2O)cc1`, the Potency was inconclusive: 10.3 µM [rising, partial curve, poor fit].
In the case of `CC1SC(c2ccc(F)cc2)NC1=O` (stereo unspecified), the Potency is reported as inconclusive: 29.1 µM [rising, single point].
In the case of `Cc1ccc(NC(=S)Nc2ccc(Cl)c(Cl)c2)c(OC(F)F)c1`, the Potency is reported as active: 18.4 µM.
With `CN(C)C(=O)COc1ccc2ccc(=O)oc2c1` the Potency was “inactive”.
In the case of `COc1cc(C2CC(=O)Nc3ccccc3S2)cc(OC)c1OC` (stereo unspecified), the Potency is reported as active: 10.3 µM.
With `Fc1ccc(CSc2nnc(-c3cccs3)o2)cc1` the Potency was inconclusive: 23.1 µM [cytotoxic, single point].
For `CC(C)C(C(=O)OCC(=O)c1cccc([N+](=O)[O-])c1)N1C(=O)[C@@H]2[C@H]3CC[C@H](C3)[C@@H]2C1=O` (stereo partly specified), the Potency was active: 20.6 µM.
For `Cc1cc(C)n(CCCNC(=O)c2ccco2)n1`, the Potency was inconclusive: 20.6 µM [rising, single point].
With `C=CCNc1nc(N)c(C(=C(C#N)C#N)c2ccccc2)s1` the Potency was inconclusive: 25.9 µM [cytotoxic, partial curve, poor fit].
For `CCOC(=S)SCC(=O)N1CCc2cc(OC)c(OC)cc2C1C1C(=O)CC(C)(C)CC1=O` (stereo unspecified), the Potency was “inactive”.
In the case of `C#CCOCCOCCOCCNc1nc(N2CCN(C(=O)C([C@@H](C)CC)n3cc(C(N)CC(C)C)nn3)CC2)nc(N2CCN(C(=O)[C@H](CCC(=O)O)n3cc(C(N)CC(C)C)nn3)CC2)n1` (stereo partly specified), the Potency is reported as inconclusive: 23.1 µM [rising, single point].
In the case of `CCCc1cc(=O)oc2c(C)c(O[C@@H]3O[C@H](CO)[C@@H](O)[C@H](O)[C@H]3O)ccc12`, the Potency is reported as inconclusive: 16.4 µM [cytotoxic, single point].
In the case of `COc1ccc2ccccc2c1CN1CCN(C(=O)c2ccco2)CC1`, the Potency is reported as inconclusive: 8.2 µM [cytotoxic, partial curve].
With `Cc1ccccc1N1CCN(c2ncnc3scc(-c4cccs4)c23)CC1` the Potency was inconclusive: 20.6 µM [cytotoxic, partial curve].
With `CCCCOC(=O)c1cc(=O)[nH]c2ccccc12` the Potency was active: 5.8 µM.
In the case of `C/C(Cl)=C\Cn1c(O)c(N=NC(N)=S)c2ccccc21`, the Potency is reported as active: 9.2 µM.
With `Cc1ccc(S(=O)(=O)N2CCN(c3ncnc4sccc34)CC2)cc1` the Potency was inconclusive: 18.4 µM [cytotoxic, partial curve, poor fit].
For `CC(C)C(NC(=O)c1ccc(F)cc1)C(=O)N1CCOCC1` (stereo unspecified), the Potency was inconclusive: 23.1 µM [cytotoxic, partial curve, poor fit].
In the case of `Cc1c(C(=O)NCc2cccnc2)oc2ccc(S(=O)(=O)N3CCCCC3)cc12`, the Potency is reported as inconclusive: 5.8 µM [cytotoxic, full curve, poor fit].
With `O=C(NCCN1CCOCC1)c1cc(-c2ccccc2Cl)nc2ccccc12` the Potency was inconclusive: 8.2 µM [cytotoxic, partial curve].
For `O=C(COC(=O)CCc1c[nH]c2ccccc12)NC(c1ccccc1)c1ccccc1`, the Potency was “inactive”.
With `CC(=O)Nc1ccc(/C=C/c2ccnc3ccccc23)cc1[N+](=O)[O-]` the Potency was “inactive”.
With `CCc1ccccc1NS(=O)(=O)c1ccc2[nH]cc(C(=O)N(CC(C)C)CC(C)C)c(=O)c2c1` the Potency was inconclusive: 18.4 µM [rising, single point].
With `CC1CCCC(NC(=O)CNC(=S)N(Cc2ccccc2)Cc2cccs2)C1C` (stereo unspecified) the Potency was inconclusive: 7.31 µM [cytotoxic, partial curve].
With `CCCC(=O)NNc1c2ccccc2nc2ccccc12` the Potency was active: 16.4 µM.
With `O=C(CSc1nnnn1-c1ccccc1)N1CCc2ccccc2C1` the Potency was active: 14.6 µM.
With `COc1cccc(N/C(SCc2ccccc2F)=C(/C#N)C(=O)NCc2cccs2)c1` the Potency was active: 16.4 µM.
In the case of `CCN(C1CCCCC1)S(=O)(=O)c1cc(C)ccc1OC`, the Potency is reported as “inactive”.
